Assay results published in patent US20210290527A1, “Compositions and Methods for Treatment of Ocular Conditions” (EyeGate Pharmaceuticals, Inc., priority 2020, published 2021).
At least one structure is not confirmed: it was looked up by name or label, or the drawing left a doubt.

What was measured:
[1] = drug incorporated at 1 mg/ml in CMHA-S hydrogel
Description: (§1) RI was measured with a refractometer and pH was measured with a pH meter.

[2] = Rheological testing, parallel plate rheometer: viscosity and shear-thinning; type: physicochemical; settings: drug incorporated at 1 mg/ml in CMHA-S hydrogel
Description: Thiol-modified carboxymethyl HA (CMHA-S) was synthesized as described in Lawyer et al. and Wendling et al., with a thiol modification of 0.1, 0.2, 0.4, or 0.7 μmol thiol/mg. Hydrogels were created by dissolving CMHA-S in phosphate-buffered saline (PBS; pH 7.4). The CMHA-S was disulfide crosslinked under continuous mixing with the addition of sodium hypochlorite. Rheological testing was performed using a parallel plate format rheometer with a 25 mm-diameter stainless steel geometry. Samples (5-6 ml) of hydrogel were placed in a 35 mm Petri dish, and the geometry was lowered to a gap of 5 mm. To determine viscosity and shear-thinning, the shear rate was varied from 0.1 to 10 Hz. A decreasing viscosity as shear rate increases indicates shear-thinning behavior.
Viscosity was determined as described in Example 1.

[3] = pH measured with a pH meter; type: physicochemical; settings: drug incorporated at 1 mg/ml in CMHA-S hydrogel
Description: as §1

C[C@@H]1C[C@H]2[C@@H]3CCC4=CC(=O)C=C[C@]4(C)[C@@]3(F)[C@@H](O)C[C@]2(C)[C@@]1(O)C(=O)CO [Dexamethasone, dexamethasone]
RI [1]: 1.3354
Viscosity at 2.5 Hz [2]: 1.0 Pa · s
pH [3]: 7.2
